For at least one entry, the source does not settle the construct or the ends of the probe. Results from cells or extracts need not show a direct contact. For some assays here: At least one verdict was read from the data and is not stated in words by the source.
Tests used:
Assay in all cases: interferometric plasmonic microscopy (EVP capture on aptamer chip)
[1] = biological target: CD63 on extracellular vesicles (UniProt P08962); conditions: MCF-7 EVPs, specificity checked against BSA-coated surface; Au chip modified with 1 uM aptamer, 5 uM TCEP, 1 uM MCH, rinsed with 1x PBS, blocked with 1% BSA; 15 min EVP binding; binding buffer; protein on the cell surface; single-stranded DNA
[2] = biological target: PTK7 on extracellular vesicles (UniProt Q13308); conditions: EVPs; Au chip modified with 1 uM aptamer, 5 uM TCEP, 1 uM MCH, rinsed with 1x PBS, blocked with 1% BSA; 15 min EVP binding; binding buffer; protein on the cell surface; single-stranded DNA
[3] = biological target: EpCAM on extracellular vesicles (UniProt P16422); conditions: EVPs; Au chip modified with 1 uM aptamer, 5 uM TCEP, 1 uM MCH, rinsed with 1x PBS, blocked with 1% BSA; 15 min EVP binding; binding buffer; protein on the cell surface; single-stranded DNA
[4] = biological target: HER2 on extracellular vesicles (UniProt P04626); conditions: EVPs on HER2-modified chip; Au chip modified with 1 uM aptamer, 5 uM TCEP, 1 uM MCH, rinsed with 1x PBS, blocked with 1% BSA; 15 min EVP binding; binding …; protein on the cell surface; single-stranded DNA
[5] = biological target: PSMA on extracellular vesicles (UniProt Q04609); conditions: EVPs, only exponential coefficients of the binding curves given, no Kd; Au chip modified with 1 uM aptamer, 5 uM TCEP, 1 uM MCH, rinsed with 1x PBS, blocked with 1% BSA; 15 min EVP binding; binding buffer; protein on the cell surface; single-stranded DNA

By UniProt entry, the sequences of proteins in these tests, tags left out. Where a name states a change or a piece, a line headed by the entry shows the natural chain unless it says otherwise. Residues count along the entry.
UniProt P08962, 2-238: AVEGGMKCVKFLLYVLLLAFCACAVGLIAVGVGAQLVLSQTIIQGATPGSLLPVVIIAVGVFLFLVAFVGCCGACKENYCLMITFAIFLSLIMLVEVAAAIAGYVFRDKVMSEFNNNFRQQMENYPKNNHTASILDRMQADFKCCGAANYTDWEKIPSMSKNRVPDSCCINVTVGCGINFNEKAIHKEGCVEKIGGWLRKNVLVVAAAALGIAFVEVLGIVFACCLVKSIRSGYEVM
UniProt Q13308, 31-1070: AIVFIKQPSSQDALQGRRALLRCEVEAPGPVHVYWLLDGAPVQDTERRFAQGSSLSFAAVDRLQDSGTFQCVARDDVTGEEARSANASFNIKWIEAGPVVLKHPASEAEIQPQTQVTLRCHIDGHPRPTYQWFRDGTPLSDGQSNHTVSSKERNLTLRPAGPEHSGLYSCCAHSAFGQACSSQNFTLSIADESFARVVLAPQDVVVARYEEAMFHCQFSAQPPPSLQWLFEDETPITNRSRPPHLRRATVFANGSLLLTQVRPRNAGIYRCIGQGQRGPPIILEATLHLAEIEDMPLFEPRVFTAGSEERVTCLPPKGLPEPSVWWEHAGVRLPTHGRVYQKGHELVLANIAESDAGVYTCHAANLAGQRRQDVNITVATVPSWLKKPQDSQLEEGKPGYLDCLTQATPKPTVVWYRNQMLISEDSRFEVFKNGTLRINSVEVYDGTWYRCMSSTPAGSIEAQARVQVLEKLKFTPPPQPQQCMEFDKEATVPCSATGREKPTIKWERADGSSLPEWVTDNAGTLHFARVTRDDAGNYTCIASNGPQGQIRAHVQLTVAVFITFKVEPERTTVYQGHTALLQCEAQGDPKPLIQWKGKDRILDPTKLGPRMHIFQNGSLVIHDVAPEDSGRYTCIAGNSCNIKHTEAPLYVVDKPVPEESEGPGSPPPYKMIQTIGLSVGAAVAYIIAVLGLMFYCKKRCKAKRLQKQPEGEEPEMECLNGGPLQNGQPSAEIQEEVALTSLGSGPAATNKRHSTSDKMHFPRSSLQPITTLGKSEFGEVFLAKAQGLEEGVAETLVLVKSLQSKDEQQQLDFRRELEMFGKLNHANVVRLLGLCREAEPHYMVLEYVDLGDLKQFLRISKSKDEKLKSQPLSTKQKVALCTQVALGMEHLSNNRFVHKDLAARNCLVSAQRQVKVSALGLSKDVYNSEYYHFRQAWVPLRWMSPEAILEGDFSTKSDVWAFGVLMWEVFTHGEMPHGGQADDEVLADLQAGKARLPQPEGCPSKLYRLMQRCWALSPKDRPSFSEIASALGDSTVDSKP
UniProt P16422, 24-314: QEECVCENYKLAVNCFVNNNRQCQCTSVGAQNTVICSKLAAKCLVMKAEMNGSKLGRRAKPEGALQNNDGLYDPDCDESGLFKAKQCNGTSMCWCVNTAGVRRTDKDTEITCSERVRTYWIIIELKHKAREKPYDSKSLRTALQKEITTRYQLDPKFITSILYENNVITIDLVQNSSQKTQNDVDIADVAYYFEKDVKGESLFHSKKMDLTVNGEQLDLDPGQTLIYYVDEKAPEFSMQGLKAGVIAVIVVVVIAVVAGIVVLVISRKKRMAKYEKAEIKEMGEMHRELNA
UniProt Q04609: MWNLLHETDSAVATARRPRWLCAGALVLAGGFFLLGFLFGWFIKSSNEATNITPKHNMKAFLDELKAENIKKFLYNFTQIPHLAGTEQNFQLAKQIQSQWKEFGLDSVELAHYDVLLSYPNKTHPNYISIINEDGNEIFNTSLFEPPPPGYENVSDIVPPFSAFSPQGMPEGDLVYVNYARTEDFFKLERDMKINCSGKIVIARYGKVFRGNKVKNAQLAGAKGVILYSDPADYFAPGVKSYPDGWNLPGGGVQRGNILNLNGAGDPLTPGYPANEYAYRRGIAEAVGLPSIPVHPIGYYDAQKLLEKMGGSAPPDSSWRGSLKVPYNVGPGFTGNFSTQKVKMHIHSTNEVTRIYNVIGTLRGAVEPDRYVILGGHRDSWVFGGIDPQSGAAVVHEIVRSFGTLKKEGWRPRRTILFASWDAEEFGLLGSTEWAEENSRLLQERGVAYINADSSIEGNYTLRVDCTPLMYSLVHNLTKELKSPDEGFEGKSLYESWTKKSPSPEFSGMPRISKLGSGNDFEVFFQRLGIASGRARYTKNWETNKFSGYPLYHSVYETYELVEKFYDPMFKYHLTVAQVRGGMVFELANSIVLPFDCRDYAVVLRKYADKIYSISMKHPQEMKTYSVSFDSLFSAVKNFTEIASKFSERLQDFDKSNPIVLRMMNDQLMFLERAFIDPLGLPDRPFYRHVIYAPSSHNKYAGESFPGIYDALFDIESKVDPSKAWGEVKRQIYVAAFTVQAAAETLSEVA

“CACCCCACCTCGCTCCCGTGACACTAATGCTA [CD63 aptamer]”: binds [1].
“ATCTAACTGCTGCGCCGCCGGGAAAATACTGTACGGTTAGA [PTK7 aptamer]”: binds [2].
“CACTACAGAGGTTGCGTCTGTCCCACGTTGTCATGGGGGGTTGGCCTG [EpCAM aptamer]”: binds [3].
“GGGCCGTCGAACACGAGCATGGTGCGTGGACCTAGGATGACCTGAGTACTGTCC [HER2 aptamer]”: binds [4].
“GCGTTTTCGCTTTTGCGTTTTGGGTCATCTGCTTACGATAGCAATGCT [PSMA aptamer]”: binds [5].

Source: publication PMC10696525
